For at least one compound, name, drawing or mass did not settle the structure. Residues, ends and D or L forms follow the SMILES beside them.
Target: T1, hTRPV1 (Homo sapiens, UniProt Q8NER1)
T1 construct: expressed in transfected cells; the earlier reading calls it TRPV1 CHO-K1 cells
Experiment: Calcium imaging (Fura-2AM) of capsaicin-induced Ca2+ influx in TRPV1 CHO-K1 cells
Type: cell-based
Conditions: read-out: hTRPV1 inhibitory IC50, capsaicin-induced ratio value (ΔF/F), peptide pre-treatment
Procedure: The TRPV1 inhibitory effect of various short-length peptides, including the 49 peptides in Tables 5 and 6, was evaluated by the following method.
All reagents used in cell culture were sterilized products. The culture medium of the cell line is shown in Table 7 below, and the culture was performed in a cell incubator with under the culture conditions of […] and 37° C. In addition, when cryopreserved cells (stock) were thawed and used, they were subcultured two to three times before use in the test.
After removing the cell culture medium by suction, 10 ml DPBS was added to wash the cells, and then the DPBS was removed by suction. 2 ml 0.05% trypsin-EDTA was added, and then the cells were cultured in a cell incubator at 37° C. for three to five minutes. Through a microscope, detachment of the cells from the bottom surface of the culture dish was confirmed, and 8 ml of the cell culture medium including 10% FBS was added to inactivate the trypsin-EDTA. Cells in the culture dish were collected, pipetted, and transferred to a 15 ml tube.
Centrifugation was performed at 800 rpm for five minutes, and all the supernatant except the cell pellet was removed. Then, the cell culture medium was added, and the pellet was carefully loosened. […]

By UniProt entry, the sequences of proteins in these tests, tags left out.
UniProt Q8NER1, whole entry: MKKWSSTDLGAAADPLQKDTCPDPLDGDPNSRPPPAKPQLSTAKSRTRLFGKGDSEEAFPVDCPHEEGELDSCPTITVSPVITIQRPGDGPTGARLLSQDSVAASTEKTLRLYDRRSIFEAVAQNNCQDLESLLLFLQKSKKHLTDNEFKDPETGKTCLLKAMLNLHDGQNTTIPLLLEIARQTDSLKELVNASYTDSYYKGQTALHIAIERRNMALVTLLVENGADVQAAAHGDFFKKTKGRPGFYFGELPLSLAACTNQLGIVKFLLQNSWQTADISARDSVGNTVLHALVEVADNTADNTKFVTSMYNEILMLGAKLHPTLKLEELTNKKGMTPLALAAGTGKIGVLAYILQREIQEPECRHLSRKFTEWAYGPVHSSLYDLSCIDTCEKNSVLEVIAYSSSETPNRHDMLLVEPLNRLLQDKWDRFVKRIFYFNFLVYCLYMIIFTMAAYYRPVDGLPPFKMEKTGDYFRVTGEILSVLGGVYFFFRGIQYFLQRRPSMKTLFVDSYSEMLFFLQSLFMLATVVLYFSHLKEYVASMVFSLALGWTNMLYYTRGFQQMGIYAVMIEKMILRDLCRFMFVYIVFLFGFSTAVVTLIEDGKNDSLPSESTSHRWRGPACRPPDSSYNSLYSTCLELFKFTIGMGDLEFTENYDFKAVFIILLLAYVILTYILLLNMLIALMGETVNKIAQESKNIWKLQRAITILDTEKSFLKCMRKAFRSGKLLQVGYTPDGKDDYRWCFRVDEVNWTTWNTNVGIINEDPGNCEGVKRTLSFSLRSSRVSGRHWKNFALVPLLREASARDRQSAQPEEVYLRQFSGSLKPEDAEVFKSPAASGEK

C[C@H](NC(=O)[C@H](CCCCN)NC(=O)[C@@H](N)Cc1ccc(O)cc1)C(=O)N[C@@H](CC(N)=O)C(=O)N[C@@H](Cc1ccc(O)cc1)C(=O)N[C@@H](CS)C(=O)N[C@@H](CO)C(=O)NCC(=O)N[C@@H](CCC(N)=O)C(=O)N[C@@H](CS)C(=O)N[C@@H](Cc1ccc(O)cc1)C(=O)O [SEQ ID NO: 5, YKANYCSGQCY] (H-YKANYCSGQCY-OH; N-terminus and C-terminus assumed)
IC50: 3.06 nM

From patent publication US20250002532A1, “A NOVEL PEPTIDE AND THE USE THEREOF” (Rudacure Corporation, priority 2023, published 2025)
